Measurements taken from publication PMC12758336.
These are yes or no findings as the source states them, for the method shown. For some assays here: Binding seen in cells or lysates may run through a third protein. Some entries that bind do so weakly or less than the wild type.

Chains of the proteins cited; added tags and fusions are not shown. Lines headed by an entry give the natural chain unless they say otherwise; changes in a name come on top. A line that says so, or that is headed by a name, gives the form on record, which may keep a tag or linker. Residues count along the entry.
ATG14 N-terminal region (residues 1–95) S61E S83E (Q6ZNE5, form named): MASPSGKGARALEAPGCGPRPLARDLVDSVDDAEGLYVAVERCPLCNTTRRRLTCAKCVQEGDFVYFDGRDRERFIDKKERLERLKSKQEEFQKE
ATG14 N-terminal region (residues 1–95) T48E T49E T54E (Q6ZNE5, form named): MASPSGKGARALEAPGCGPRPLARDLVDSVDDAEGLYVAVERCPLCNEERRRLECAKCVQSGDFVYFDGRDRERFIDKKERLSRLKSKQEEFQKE
UniProt Q6PF93: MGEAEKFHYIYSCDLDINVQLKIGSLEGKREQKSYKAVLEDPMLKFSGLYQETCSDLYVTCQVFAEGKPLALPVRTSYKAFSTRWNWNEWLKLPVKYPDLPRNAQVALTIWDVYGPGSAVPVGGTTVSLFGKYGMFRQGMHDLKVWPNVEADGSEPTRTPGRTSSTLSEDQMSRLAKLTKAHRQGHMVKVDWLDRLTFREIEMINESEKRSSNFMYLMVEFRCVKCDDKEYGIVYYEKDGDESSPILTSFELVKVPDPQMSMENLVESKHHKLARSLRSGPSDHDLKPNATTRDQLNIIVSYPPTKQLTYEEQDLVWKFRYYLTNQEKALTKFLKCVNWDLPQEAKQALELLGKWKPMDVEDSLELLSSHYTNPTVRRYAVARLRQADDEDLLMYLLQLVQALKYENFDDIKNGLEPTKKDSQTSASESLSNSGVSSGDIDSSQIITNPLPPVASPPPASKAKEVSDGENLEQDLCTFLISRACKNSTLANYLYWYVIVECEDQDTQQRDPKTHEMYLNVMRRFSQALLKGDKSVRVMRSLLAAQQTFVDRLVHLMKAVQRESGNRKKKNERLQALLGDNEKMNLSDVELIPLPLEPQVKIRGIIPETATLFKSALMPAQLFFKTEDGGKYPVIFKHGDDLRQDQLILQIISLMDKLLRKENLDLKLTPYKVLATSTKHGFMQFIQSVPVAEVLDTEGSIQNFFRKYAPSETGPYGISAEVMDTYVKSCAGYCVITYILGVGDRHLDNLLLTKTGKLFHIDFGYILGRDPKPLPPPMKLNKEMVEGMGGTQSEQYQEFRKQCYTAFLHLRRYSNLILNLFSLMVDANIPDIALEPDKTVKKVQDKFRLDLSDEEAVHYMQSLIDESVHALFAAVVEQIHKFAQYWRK
BECN1 N-terminal BH3-containing region (residues 1–105) (O88597, residues 1-105): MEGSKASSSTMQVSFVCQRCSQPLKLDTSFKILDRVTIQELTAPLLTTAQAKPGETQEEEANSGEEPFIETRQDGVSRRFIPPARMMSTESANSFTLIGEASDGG
BECN1 central CC domain (residues 174–266) (O88597, residues 174-266): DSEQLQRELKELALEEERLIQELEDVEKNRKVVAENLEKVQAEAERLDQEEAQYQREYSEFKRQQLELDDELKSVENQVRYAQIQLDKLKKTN

Assays:
NRBF2-Δ-211–287 = NRBF2-Δ-211–287 (UniProt Q8VCQ3); test: ITC; iTC200; ATG14 or BECN1 sample in the syringe (40 μl), NRBF2 in the cell; 50 mM Tris, 150 mM NaCl, pH 8.0; 16 injections; both purified
[1] = biological target: FLAG-tagged NRBF2 (wild type) (UniProt Q8VCQ3); test: co-IP; FLAG- and GFP-tagged NRBF2 constructs co-transfected into HEK293T; anti-FLAG M2 magnetic beads; immunoblot with anti-GFP
[2] = biological target: FLAG-tagged ATG14 (N2a nrbf2 knockout cells) (UniProt Q6ZNE5); test: co-IP; N2a nrbf2 KO cells transfected with FLAG-ATG14 and NRBF2-GFP constructs; Flag M2 beads; a fraction of the beads for western blot
SUMO-tagged NRBF2 = SUMO-tagged NRBF2 (UniProt Q8VCQ3); test: pull-down; SUMO-tagged NRBF2 on Ni-NTA agarose beads; full-length proteins added, 3 h at 4°C; 50 mM Tris/HCl, pH 7.4, 150 mM NaCl; SDS gel with Coomassie Brilliant Blue; both purified
FLAG-NRBF2 H54A = FLAG-NRBF2 H54A (UniProt Q8VCQ3); test: co-IP; FLAG-tagged NRBF2 constructs transfected into HEK293T; anti-FLAG M2 magnetic beads overnight at 4°C; immunoblot with anti-PIK3R4/VPS15
[3] = biological target: FLAG-tagged NRBF2 (wild type) (UniProt Q8VCQ3); test: as above
FLAG-NRBF2 T48A = FLAG-NRBF2 T48A (UniProt Q8VCQ3); test: as above
FLAG-NRBF2 E49A = FLAG-NRBF2 E49A (UniProt Q8VCQ3); test: as above
FLAG-NRBF2 S50A = FLAG-NRBF2 S50A (UniProt Q8VCQ3); test: as above
[4] = biological target: FLAG-tagged NRBF2 (wild type) (UniProt Q8VCQ3); test: co-IP; competitive co-IP: FLAG-tagged bait and GFP-tagged competitor transiently over-expressed in HEK293T; anti-FLAG M2 magnetic beads; immunoblot for endogenous PIK3R4/VPS15 and PIK3C3/VPS34; Figure 6C also after 100 nM rapamycin (2 h) or EBSS medium (2 h)

Row | Substance | binding (NRBF2-Δ-211–287) | further results
1 | ATG14 BARA-like domain construct (residues 331–400) (from UniProt Q6ZNE5 331-400) (domain or fragment) | no binding | 
2 | ATG14 C-terminal BARKOR/ATG14 autophagosome targeting sequence (BATS; residues 390–485) (from UniProt Q6ZNE5 390-485) (domain or fragment) | no binding | 
3 | ATG14 CC fragment (residues 144–195) (from UniProt Q6ZNE5 144-195) (domain or fragment) | no binding | 
4 | ATG14 N-terminal region (residues 1–95) S61E (from UniProt Q6ZNE5 1-95) (domain or fragment) | no binding | 
5 | ATG14 N-terminal region (residues 1–95) S61E S83E (from UniProt Q6ZNE5 1-95) (domain or fragment) | no binding | 
6 | ATG14 N-terminal region (residues 1–95) S83E (from UniProt Q6ZNE5 1-95) (domain or fragment) | no binding | 
7 | ATG14 N-terminal region (residues 1–95) T48E T49E T54E (from UniProt Q6ZNE5 1-95) (domain or fragment) | no binding | 
8 | FLAG-tagged NRBF2 (wild type) (from UniProt Q8VCQ3 1-287) |  | binding [1]: binds
9 | PIK3C3/VPS34 (N2a cells) (from UniProt Q6PF93 1-887) (enzyme) |  | binding [2]: binds
10 | PIK3C3/VPS34-PIK3R4/VPS15 complex (from UniProt Q8NEB9 1-887; Q99570 1-1358) |  | binding (SUMO-tagged NRBF2): binds
11 | endogenous PIK3R4/VPS15 (from UniProt Q99570 1-1358) |  | binding (FLAG-NRBF2 H54A): binds; binding [3]: binds; binding (FLAG-NRBF2 T48A): binds; binding (FLAG-NRBF2 E49A): binds; binding (FLAG-NRBF2 S50A): binds; binding [4]: binds
12 | full-length ATG14 (FLAG-Strep-ATG14) (from UniProt Q6ZNE5 1-492) |  | binding (SUMO-tagged NRBF2): no binding

Further lines, with some results ahead:

Row | binding (NRBF2-Δ-211–287) | Substance | further results
13 | no binding | ATG14 BARA-like domain construct (residues 219–289) (from UniProt Q6ZNE5 219-289) (domain or fragment) | 
14 | no binding | ATG14 CC fragment (residues 88–179) (from UniProt Q6ZNE5 88-179) (domain or fragment) | 
15 | no binding | ATG14-1–95 (from UniProt Q6ZNE5 1-95) (domain or fragment) | 
16 | no binding | BECN1 C-terminal BARA domain (residues 243–448) (from UniProt O88597 243-448) (domain or fragment) | 
17 | no binding | BECN1 N-terminal BH3-containing region (residues 1–105) (from UniProt O88597 1-105) (domain or fragment) | 
18 | no binding | BECN1 central CC domain (residues 174–266) (from UniProt O88597 174-266) (domain or fragment) | 
